From PubChem BioAssay record AID1159506 (NCATS, 2015).

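Luminescence from an EWS-FLI1 target-promoter (NR0B1) reporter, set against a CMV-promoter reporter, two days after silencing single genes in TC32 Ewing sarcoma cells.
Each siRNA was applied at 20 nM.
A z-score of the log NR0B1-over-CMV signal, less the median of siRNAs with the same seed; more negative means a stronger specific loss of the NR0B1 reporter.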

This is part of the screen; most of the strongest results are not listed here.
Sequences are the guide (antisense) strand, without overhang.

UGAUUAGCAGGCAAAUUCC against SEC61A1 gave seed-corrected z-score 1.674. Result for AUAUUAGAUAGUACGUUUC against DLX6-AS1 was seed-corrected z-score 1.144. UCACAUACCCAGACAAUGC against CORO7 read seed-corrected z-score 0.01835. For AUACUGCUCAAUCACAUCC against KCNQ3 the result was seed-corrected z-score -0.1386.

For UCCUUGUGCACAACUAUGG against DESI1 the result was seed-corrected z-score 0.3297. For AAAGUUGCAGCGAUUGCUC against NAALADL2 the result was seed-corrected z-score -1.695. Result for ACAGGUGUAAGUGCCGAUC against OPHN1 was seed-corrected z-score -0.1624. Result for UAGGCUCUCAGUAUAGUCC against USP22 was seed-corrected z-score 0.558.

UCUCAGGUUACCAACAGCC against TF read seed-corrected z-score -0.3377. For UCCCAUUUUGGAGCAUUCC against FKBP1B the result was seed-corrected z-score -1.829. UGAGUAGCAACUCCUUGAG against SPDEF read seed-corrected z-score 0.8718. For UUAGUUCACGGUUACCGGC against LRRC66 the result was seed-corrected z-score -0.1609.

UCAGCUGCAGAUUAGGACC against COG4 gave seed-corrected z-score 0.1045. For UUUGGGAUUCAGGGACAGC against GFY the result was seed-corrected z-score -0.4727. With UUAGGGUCGACACUAAUGA against SMARCD2 the assay gave seed-corrected z-score -0.7699. UAACCUGCUUCUCAGAGAG against PRY gave seed-corrected z-score 0.2799.

With UGACUAGUGAGCUGGUACC against C6orf132 the assay gave seed-corrected z-score -0.6616. With UGGAUUGCCAAAACGGUCA against HBG1 the assay gave seed-corrected z-score 0.943. UCACGAUCAACUAUAAGAG against ATAD2B gave seed-corrected z-score -0.5498. Result for UGAAUAGCCUGUGAUGUCC against SYT6 was seed-corrected z-score 0.8355.

For AUACAGACCAUUCACUGCC against PDIA6 the result was seed-corrected z-score 0.6709. UGAGUCUUGGCGAAGCUCC against OTP gave seed-corrected z-score 0.1351. UAUUCUUCCCGAACCUUCU against ADGRE5 read seed-corrected z-score 0.08508. UGGAGAUUGAGGUUGAGCC against SPATA31D1 gave seed-corrected z-score -0.5193.

AUCAUAUGCAGAGUCCUUC against SLC2A14 gave seed-corrected z-score 0.4033. With UUUGCAAUUGGGCUGGUGC against XIRP1 the assay gave seed-corrected z-score -0.07219. UUCCUUAUCCAGCAUCUUG against GYS1 read seed-corrected z-score 0.6352. UUGAUGCCCAGACUGGUAG against ASB12 gave seed-corrected z-score -0.6074.

For AAGGGAAUGACAAACGGCC against CBFA2T3 the result was seed-corrected z-score -0.004575. For UACUUAAUCUGCGUAAUGG against EIF3I the result was seed-corrected z-score 1.491. AAGGGAUUAAGACACAUAG against LINC00152 read seed-corrected z-score -0.2043. UCAUCUAUAACACCUUGGG against STARD4 gave seed-corrected z-score 0.4799.

AUAGCGAAUCUCUAGCUUG against CXXC1 gave seed-corrected z-score 0.3735. AAGGUAGUUGGUUUGGUAG against PRAF2 read seed-corrected z-score 0.6648. With AGCCUUGUACUUUCCAGUC against ARSA the assay gave seed-corrected z-score -0.02846. Result for UAAGUCAAGUGGUUGGGUC against DNPH1 was seed-corrected z-score 1.247.

For UCAGUGAGGCCGAAACUCC against NME6 the result was seed-corrected z-score -0.06123. For UAUACUACCUGGUUCACCC against COL4A5 the result was seed-corrected z-score 0.7407. Result for AAAAGGGCUACUGCAGUGA against OR1L6 was seed-corrected z-score -1.597.

For reference, 4 entries once more:

| Sequence | gene | seed-corrected z-score |
|---|---|---|
| `UUUGGGAUUCAGGGACAGC` | GFY | -0.4727 |
| `AAGGUAGUUGGUUUGGUAG` | PRAF2 | 0.6648 |
| `UUAGGGUCGACACUAAUGA` | SMARCD2 | -0.7699 |
| `UCCUUGUGCACAACUAUGG` | DESI1 | 0.3297 |